According to PubChem BioAssay AID2685 (National Center for Advancing Translational Sciences (NCATS), 2010):
The list shows a part of the results. Shown are side measurements of this screen, not its main read-out; they come without a call. Compounds called inactive in the main read-out are mostly missing here. The note in brackets gives the kind of curve behind each potency; many fits are weak.

Experiment: qHTS Assay for Lipid Storage Modulators in Drosophila S3 Cells;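 as to cell number change: cells counted by Cell Tracker Red CMTPX staining in the red channel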
Details: BODIPY lipid droplet fluorescence, 18-24 h; for cell number change: measured here: cell count max response, cells fed with added oleic acid
In short: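 Drosophila S3 cells loaded with oleic acid (400 uM, as added) and compounds at several concentrations; lipid droplets imaged by 488-nm laser-scanning cytometry, 500–530 nm intensity and object ratio to cell channel. Percent activity normalized to 20 uM Triacsin C.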

[1] = measured here: cell number channel AC50, cells fed with added oleic acid
[2] = measured here: lipid fluorescence (Fed channel) AC50, cells fed with added oleic acid

Row | SMILES | cell number change [%] | AC50 [1] | AC50 [2]
1 | COc1ccc(C)cc1NC(=O)CCN1CC(C)OC(C)C1 (stereo unspecified) | 53.7 | 1.46 µM [rising, partial curve] | 29.1 µM [rising, single point]
2 | COC(=O)c1cc(OC)c(OC)cc1NC(=O)CCNC(=O)c1ccco1 | -21.9 | – | –
3 | Nc1cccc(S(=O)(=O)Nc2ccc(SC(F)F)cc2)c1 | 28.7 | – | 29.1 µM [rising, single point]
4 | COc1ccc(C(=O)Sc2nncc3ccccc23)cc1 | 72.8 | 29.1 µM [rising, single point] | 29.1 µM [rising, single point]
5 | CCN(CC)S(=O)(=O)c1ccc(/C=C/C(=O)Nc2c(C)n(C)n(-c3ccccc3)c2=O)cc1 | – | 5.8 µM [rising, single point] | 5.8 µM [rising, single point]
6 | O=c1nc(N2CCOCC2)ccn1-c1nc(-c2ccccc2)oc1-c1ccccc1 | -4.32 | – | –
7 | O=C(Nc1nnc(-c2ccncc2)o1)c1ccc(Br)s1 | -23.8 | – | 23.1 µM [falling, partial curve]
8 | CCC(=O)Nc1nc2n(n1)C(c1ccc(OC)cc1)C=C(c1ccccc1)N2 (stereo unspecified) | – | 0.0651 µM [rising, full curve, poor fit] | –
9 | Cc1cccc2nc(-c3ccccc3)nc(N[C@@H](CO)c3ccccc3)c12 | -63.4 | 18.4 µM [falling, single point] | 9.2 µM [rising, partial curve]
10 | CCc1nc2cccnc2n1-c1ccc(CC(=O)NCCOC)cc1 | 12.8 | – | 3.66 µM [rising, full curve, poor fit]
11 | O=c1[nH]c2c(cc1CNCCN1CCOCC1)c(-c1cccc(F)c1)nn2-c1ccccc1 | -26.3 | 2.59 µM [falling, full curve, poor fit] | –
12 | CCOC(=O)c1cc2ccc(OC)c(OC)c2c(=O)s1 | – | 3.66 µM [rising, single point] | 3.26 µM [rising, partial curve]
13 | Cn1c(SCC(=O)Nc2ccccc2Cl)nnc1C1CC1 | 7.5 | – | –
14 | CC(NC(=O)COC(=O)C1CCN(c2ccc(C(F)(F)F)cn2)CC1)c1ccc(F)cc1 (stereo unspecified) | -6.88 | – | 0.651 µM [rising, full curve, poor fit]
15 | O=C(Nc1cc(F)ccc1F)C1CCN(S(=O)(=O)c2cccc3nonc23)CC1 | – | 1.84 µM [falling, partial curve, poor fit] | –
16 | COc1cc(OC)cc(-c2nnc(NC(=O)CCS(=O)(=O)c3ccc(F)cc3)o2)c1 | 206 | 9.2 µM [rising, partial curve] | –
17 | CCSc1nncn1/N=C/c1ccc(OC)c(OC)c1 | – | 3.66 µM [rising, partial curve] | –
18 | Cc1c(NS(=O)(=O)c2cc(C(=O)NCc3ccco3)cc(Cl)c2Cl)c(=O)n(-c2ccccc2)n1C | – | – | 7.31 µM [rising, partial curve]

Row | SMILES | cell number change [%] | AC50 [1] | AC50 [2]
19 | COc1ccc(CSc2nnnn2-c2ccc(C(=O)O)cc2)cc1 | 1.42 | – | 36.6 µM [rising, partial curve, poor fit]
20 | O=C(NS(=O)(=O)Oc1ccc(F)cc1F)OC[C@@H]1CCCN2CCCCC12 (stereo partly specified) | -16.2 | – | –
21 | Cc1cccc(NC(=O)CS(=O)(=O)c2c[nH]c3ccccc23)c1C | -21.5 | – | 18.4 µM [falling, partial curve]
22 | CC(C)[C@@H](NC(=O)OC(C)(C)C)C(=O)NCC1CCC(C(=O)N[C@@H](Cc2ccccc2)C(=O)O)CC1 (stereo partly specified) | 80.6 | 29.1 µM [rising, partial curve] | –
23 | COc1ccc2c(c1)[nH]c1c(=O)n(/N=C/c3ccc(OC)c(CN4CCCC4)c3)cnc12 | 22.1 | 0.00461 µM [rising, full curve, poor fit] | –
24 | COC(=O)c1ccc(Cn2c(CN3CCOCC3)nc3ccccc3c2=O)o1 | 13.2 | – | 29.1 µM [rising, single point]
25 | Cc1nn(CC(=O)Nc2cc(S(=O)(=O)N(C)C)ccc2Cl)c(C)c1[N+](=O)[O-] | -24.8 | – | 0.651 µM [falling, partial curve]
26 | COc1ccc(N2CCN(C3CCCN(Cc4cccc(C(C)=O)c4)C3)CC2)cc1 (stereo unspecified) | 6.99 | – | –
27 | COc1ccc2cc(CN(CC3CCCO3)S(=O)(=O)c3ccc(C(C)=O)cc3)c(=O)[nH]c2c1 (stereo unspecified) | 71.8 | 29.1 µM [rising, single point] | 6.51 µM [falling, single point]
28 | Cc1ccc(CN2CCN(Cc3cnc(N4CCOCC4)s3)CC2CCO)o1 (stereo unspecified) | 14.4 | – | 14.6 µM [rising, single point]
29 | Cc1cnc(NC(=O)C2COc3ccccc3O2)s1 (stereo unspecified) | 7.81 | – | 16.4 µM [falling, single point]
30 | CC(=O)C1=C(S(=O)(=O)c2ccc(C)cc2)CS(=O)(=O)C1 | -37.7 | 0.411 µM [falling, partial curve] | 0.116 µM [falling, full curve, poor fit]
31 | Cc1ccnc2nc(C(=O)Nc3cc(Cl)ccc3N3CCOCC3)nn12 | -14.7 | – | 9.2 µM [falling, partial curve]
32 | CC(/C=C1\SC(=S)N(NC(=O)c2ccc(O)cc2)C1=O)=C\c1ccccc1 | -63.1 | 32.6 µM [falling, single point] | 6.51 µM [falling, single point]
33 | CCc1cc2c(=O)[nH]c(COC)nc2s1 | -9.83 | – | 0.00411 µM [rising, full curve, poor fit]
34 | Cc1cc(Br)ccc1OCC(=O)NNC(=O)c1ccc(NC(=O)C2CC2)cc1 | 21.5 | 0.326 µM [rising, partial curve, poor fit] | 0.082 µM [rising, full curve, poor fit]
35 | Cc1ccc(-c2cc(C(=O)N/N=C/c3ccccc3O)n[nH]2)o1 | -31.7 | 29.1 µM [falling, single point] | 20.6 µM [falling, partial curve]
36 | Cc1ccc(OCC(=O)NCCNC(=O)c2cnccn2)cc1C | 2.42 | – | 20.6 µM [rising, single point]

In another format: 3 of the compounds above
O=C(NS(=O)(=O)Oc1ccc(F)cc1F)OC[C@@H]1CCCN2CCCCC12 (stereo partly specified)
  cell number change [%]: -16.2
Cc1cnc(NC(=O)C2COc3ccccc3O2)s1 (stereo unspecified)
  cell number change [%]: 7.81; AC50 [2]: 16.4 µM [falling, single point]
CC(/C=C1\SC(=S)N(NC(=O)c2ccc(O)cc2)C1=O)=C\c1ccccc1
  cell number change [%]: -63.1; AC50 [1]: 32.6 µM [falling, single point]; AC50 [2]: 6.51 µM [falling, single point]
